Reference: publication PMC7594058

The chains behind the UniProt entries cited, without tags or fusion partners.
UniProt P03072: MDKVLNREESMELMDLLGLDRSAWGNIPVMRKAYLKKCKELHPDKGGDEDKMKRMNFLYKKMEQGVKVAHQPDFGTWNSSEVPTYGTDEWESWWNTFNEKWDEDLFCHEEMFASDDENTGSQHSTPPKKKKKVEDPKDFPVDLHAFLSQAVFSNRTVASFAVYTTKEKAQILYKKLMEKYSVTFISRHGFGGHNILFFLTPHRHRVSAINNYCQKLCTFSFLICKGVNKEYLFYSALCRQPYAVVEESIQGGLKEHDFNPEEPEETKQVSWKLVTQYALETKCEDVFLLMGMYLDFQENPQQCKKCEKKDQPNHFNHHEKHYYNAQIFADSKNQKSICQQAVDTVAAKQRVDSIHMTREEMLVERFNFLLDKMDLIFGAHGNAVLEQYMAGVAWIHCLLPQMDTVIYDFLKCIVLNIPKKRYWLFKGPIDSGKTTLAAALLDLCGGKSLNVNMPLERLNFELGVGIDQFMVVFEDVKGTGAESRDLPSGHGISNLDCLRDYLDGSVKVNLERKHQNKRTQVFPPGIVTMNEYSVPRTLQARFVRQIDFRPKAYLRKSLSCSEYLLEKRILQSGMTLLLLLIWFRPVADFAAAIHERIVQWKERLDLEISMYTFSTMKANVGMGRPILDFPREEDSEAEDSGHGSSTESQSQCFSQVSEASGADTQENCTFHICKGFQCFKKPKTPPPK

Biological target: T7-2xStrep-JCV LT-Ag (JC virus (JCV)) (UniProt P03072)
Assay: affinity purification with mass spectrometry

B1: Unconventional myosin-Id (protein, UniProt O94832 1-1006)
chain: MAEQESLEFGKADFVLMDTVSMPEFMANLRLRFEKGRIYTFIGEVVVSVNPYKLLNIYGRDTIEQYKGRELYERPPHLFAIADAAYKAMKRRSKDTCIVISGESGAGKTEASKYIMQYIAAITNPSQRAEVERVKNMLLKSNCVLEAFGNAKTNRNDNSSRFGKYMDINFDFKGDPIGGHINNYLLEKSRVIVQQPGERSFHSFYQLLQGGSEQMLRSLHLQKSLSSYNYIHVGAQLKSSINDAAEFRVVADAMKVIGFKPEEIQTVYKILAAILHLGNLKFVVDGDTPLIENGKVVSIIAELLSTKTDMVEKALLYRTVATGRDIIDKQHTEQEASYGRDAFAKAIYERLFCWIVTRINDIIEVKNYDTTIHGKNTVIGVLDIYGFEIFDNNSFEQFCINYCNEKLQQLFIQLVLKQEQEEYQREGIPWKHIDYFNNQIIVDLVEQQHKGIIAILDDACMNVGKVTDEMFLEALNSKLGKHAHFSSRKLCASDKILEFDRDFRIRHYAGDVVYSVIGFIDKNKDTLFQDFKRLMYNSSNPVLKNMWPEGKLSITEVTKRPLTAATLFKNSMIALVDNLASKEPYYVRCIKPNDKKSPQIFDDERCRHQVEYLGLLENVRVRRAGFAFRQTYEKFLHRYKMISEFTWPNHDLPSDKEAVKKLIERCGFQDDVAYGKTKIFIRTPRTLFTLEELRAQMLIRIVLFLQKVWRGTLARMRYKRTKAALTIIRYYRRYKVKSYIHEVARRFHGVKTMRDYGKHVKWPSPPKVLRRFEEALQTIFNRWRASQLIKSIPASDLPQVRAKVAAVEMLKGQRADLGLQRAWEGNYLASKPDTPQTSGTFVPVANELKRKDKYMNVLFSCHVRKVNRFSKVEDRAIFVTDRHLYKMDPTKQYKVMKTIPLYNLTGLSVSNGKDQLVVFHTKDNKDLIVCLFSKQPTHESRIGELVGVLVNHFKSEKRHLQVNVTNPVQCSLHGKKCTVSVETRLNQPQPDFTKNRSGFILSVPGN
  binding: binds

B2: DnaJ homolog subfamily C member 1 (protein, UniProt Q8IXB1 33-793)
chain: DQDFYSLLGVSKTASSREIRQAFKKLALKLHPDKNPNNPNAHGDFLKINRAYEVLKDEDLRKKYDKYGEKGLEDNQGGQYESWNYYRYDFGIYDDDPEIITLERREFDAAVNSGELWFVNFYSPGCSHCHDLAPTWRDFAKEVDGLLRIGAVNCGDDRMLCRMKGVNSYPSLFIFRSGMAPVKYHGDRSKESLVSFAMQHVRSTVTELWTGNFVNSIQTAFAAGIGWLITFCSKGGDCLTSQTRLRLSGMLDGLVNVGWMDCATQDNLCKSLDITTSTTAYFPPGATLNNKEKNSILFLNSLDAKEIYLEVIHNLPDFELLSANTLEDRLAHHRWLLFFHFGKNENSNDPELKKLKTLLKNDHIQVGRFDCSSAPDICSNLYVFQPSLAVFKGQGTKEYEIHHGKKILYDILAFAKESVNSHVTTLGPQNFPANDKEPWLVDFFAPWCPPCRALLPELRRASNLLYGQLKFGTLDCTVHEGLCNMYNIQAYPTTVVFNQSNIHEYEGHHSAEQILEFIEDLMNPSVVSLTPTTFNELVTQRKHNEVWMVDFYSPWCHPCQVLMPEWKRMARTLTGLINVGSIDCQQYHSFCAQENVQRYPEIRFFPPKSNKAYHYHSYNGWNRDAYSLRIWGLGFLPQVSTDLTPQTFSEKVLQGKNHWVIDFYAPWCGPCQNFAPEFELLARMIKGKVKAGKVDCQAYAQTCQKAGIRAYPTVKFYFYERAKRNFQEEQINTRDAKAIAALISEKLETLRNQGKRNKDEL
  binding: binds

B3: Carnosine N-methyltransferase (protein, UniProt Q8N4J0 1-409)
chain: MQRRRRPPPPTSRLPEGCGGGGGGSEEVEVQFSAGRWGSAAAVSAAAAAATRSTEEEEERLEREHFWKIINAFRYYGTSMHERVNRTERQFRSLPANQQKLLPQFLLHLDKIRKCIDHNQEILLTIVNDCIHMFENKEYGEDGNGKIMPASTFDMDKLKSTLKQFVRDWSETGKAERDACYQPIIKEILKNFPKERWDPSKVNILVPGAGLGRLAWEIAMLGYACQGNEWSFFMLFSSNFVLNRCSEINKYKLYPWIHQFSNNRRSADQIRPIFFPDVDPHSLPPGSNFSMTAGDFQEIYSECNTWDCIATCFFIDTAHNVIDYIDTIWKILKPGGIWINLGPLLYHFENLANELSIELSYEDIKNVVLQYGFKVEVEKESVLSTYTVNDLSMMKYYYECVLFVVRKPQ
  binding: binds

B4: Tropomodulin-3 (protein, UniProt Q9NYL9 1-352)
chain: MALPFRKDLEKYKDLDEDELLGNLSETELKQLETVLDDLDPENALLPAGFRQKNQTSKSTTGPFDREHLLSYLEKEALEHKDREDYVPYTGEKKGKIFIPKQKPVQTFTEEKVSLDPELEEALTSASDTELCDLAAILGMHNLITNTKFCNIMGSSNGVDQEHFSNVVKGEKILPVFDEPPNPTNVEESLKRTKENDAHLVEVNLNNIKNIPIPTLKDFAKALETNTHVKCFSLAATRSNDPVATAFAEMLKVNKTLKSLNVESNFITGVGILALIDALRDNETLAELKIDNQRQQLGTAVELEMAKMLEENTNILKFGYQFTQQGPRTRAANAITKNNDLVRKRRVEGDHQ
  binding: binds

B5: NACHT, LRR and PYD domains-containing protein 2 (protein, UniProt Q9NX02 1-1062)
chain: MVSSAQMGFNLQALLEQLSQDELSKFKYLITTFSLAHELQKIPHKEVDKADGKQLVEILTTHCDSYWVEMASLQVFEKMHRMDLSERAKDEVREAALKSFNKRKPLSLGITRKERPPLDVDEMLERFKTEAQAFTETKGNVICLGKEVFKGKKPDKDNRCRYILKTKFREMWKSWPGDSKEVQVMAERYKMLIPFSNPRVLPGPFSYTVVLYGPAGLGKTTLAQKLMLDWAEDNLIHKFKYAFYLSCRELSRLGPCSFAELVFRDWPELQDDIPHILAQARKILFVIDGFDELGAAPGALIEDICGDWEKKKPVPVLLGSLLNRVMLPKAALLVTTRPRALRDLRILAEEPIYIRVEGFLEEDRRAYFLRHFGDEDQAMRAFELMRSNAALFQLGSAPAVCWIVCTTLKLQMEKGEDPVPTCLTRTGLFLRFLCSRFPQGAQLRGALRTLSLLAAQGLWAQTSVLHREDLERLGVQESDLRLFLDGDILRQDRVSKGCYSFIHLSFQQFLTALFYTLEKEEEEDRDGHTWDIGDVQKLLSGVERLRNPDLIQAGYYSFGLANEKRAKELEATFGCRMSPDIKQELLRCDISCKGGHSTVTDLQELLGCLYESQEEELVKEVMAQFKEISLHLNAVDVVPSSFCVKHCRNLQKMSLQVIKENLPENVTASESDAEVERSQDDQHMLPFWTDLCSIFGSNKDLMGLAINDSFLSASLVRILCEQIASDTCHLQRVVFKNISPADAHRNLCLALRGHKTVTYLTLQGNDQDDMFPALCEVLRHPECNLRYLGLVSCSATTQQWADLSLALEVNQSLTCVNLSDNELLDEGAKLLYTTLRHPKCFLQRLSLENCHLTEANCKDLAAVLVVSRELTHLCLAKNPIGNTGVKFLCEGLRYPECKLQTLVLWNCDITSDGCCDLTKLLQEKSSLLCLDLGLNHIGVKGMKFLCEALRKPLCNLRCLWLWGCSIPPFSCEDLCSALSCNQSLVTLDLGQNPLGSSGVKMLFETLTCSSGTLRTLRLKIDDFNDELNKLLEEIEEKNPQLIIDTEKHHPWAERPSSHDFMI
  binding: binds

These are yes or no findings as the source states them, for the method shown. Binding seen in cells or lysates may run through a third protein. A yes stands for co-enrichment or nearness to the bait. Other partners may have been found.
